{
  "source": "paper PMC6486548",
  "key": {"MLE dsRBD1 [1]": {"target": "MLE dsRBD1 (UniProt P24785)", "assay": "filter binding", "conditions": "5 mM Mg2+, Filter binding: 20 mM HEPES/NaOH pH 8.0, 150 mM NaCl, 5 mM MgCl2, on ice, recombinant protein, residues 1-84, protein details: N-terminal His6 removed by TEV"}, "MLE dsRBD1,2 K54E": {"target": "MLE dsRBD1,2 K54E (UniProt P24785)", "assay": "filter binding", "conditions": "5 mM Mg2+; Filter binding: 20 mM HEPES/NaOH pH 8.0, 150 mM NaCl, 5 mM MgCl2, on ice; recombinant protein; residues 1-257; protein details: N-terminal His6 removed by TEV; label: 5' label"}, "MLE dsRBD1 K4E [2]": {"target": "MLE dsRBD1 K4E (UniProt P24785)", "assay": "filter binding", "conditions": "5 mM Mg2+; Filter binding: 20 mM HEPES/NaOH pH 8.0, 150 mM NaCl, 5 mM MgCl2, on ice; recombinant protein; residues 1-84; protein details: N-terminal His6 removed by TEV; label: 5' label"}, "MLE dsRBD1,2 K53E": {"target": "MLE dsRBD1,2 K53E (UniProt P24785)", "assay": "filter binding", "conditions": "5 mM Mg2+; Filter binding: 20 mM HEPES/NaOH pH 8.0, 150 mM NaCl, 5 mM MgCl2, on ice; recombinant protein; residues 1-257; protein details: N-terminal His6 removed by TEV; label: 5' label"}, "MLE full-length K225E": {"target": "MLE full-length K225E (UniProt P24785)", "assay": "filter binding", "conditions": "very little binding; Filter binding: 20 mM HEPES/NaOH pH 8.0, 150 mM NaCl, 5 mM MgCl2, on ice; recombinant protein; residues 1-1293; protein details: FLAG; label: 5' label"}, "MLE full-length": {"target": "MLE full-length (UniProt P24785)", "assay": "filter binding", "conditions": "5 mM Mg2+; Filter binding: 20 mM HEPES/NaOH pH 8.0, 150 mM NaCl, 5 mM MgCl2, on ice; recombinant protein; residues 1-1293; protein details: FLAG; label: 5' label"}, "[3]": {"target": "MLE full-length K54+225E K54E,K225E (UniProt P24785)", "assay": "filter binding", "conditions": "5 mM Mg2+; Filter binding: 20 mM HEPES/NaOH pH 8.0, 150 mM NaCl, 5 mM MgCl2, on ice; recombinant protein; residues 1-1293; protein details: FLAG; label: 5' label"}, "MLE dsRBD2": {"target": "MLE dsRBD2 (UniProt P24785)", "assay": "filter binding", "conditions": "5 mM Mg2+; Filter binding: 20 mM HEPES/NaOH pH 8.0, 150 mM NaCl, 5 mM MgCl2, on ice; recombinant protein; residues 155-257; protein details: N-terminal His6 removed by TEV; label: 5' label"}, "[4]": {"target": "MLE dsRBD1,2 K53+54E K53E,K54E (UniProt P24785)", "assay": "filter binding", "conditions": "5 mM Mg2+; Filter binding: 20 mM HEPES/NaOH pH 8.0, 150 mM NaCl, 5 mM MgCl2, on ice; recombinant protein; residues 1-257; protein details: N-terminal His6 removed by TEV; label: 5' label"}, "[5]": {"target": "MLE dsRBD1,2 linker deletion del85-140 (UniProt P24785)", "assay": "filter binding", "conditions": "affinity similar to dsRBD1,2; Filter binding: 20 mM HEPES/NaOH pH 8.0, 150 mM NaCl, 5 mM MgCl2, on ice; recombinant protein; residues 1-257; protein details: N-terminal His6 removed by TEV; label: 5' label"}, "MLE dsRBD1,2 K225E": {"target": "MLE dsRBD1,2 K225E (UniProt P24785)", "assay": "filter binding", "conditions": "severely diminished but detectable; Filter binding: 20 mM HEPES/NaOH pH 8.0, 150 mM NaCl, 5 mM MgCl2, on ice; recombinant protein; residues 1-257; protein details: N-terminal His6 removed by TEV; label: 5' label"}, "MLE dsRBD1 K53E": {"target": "MLE dsRBD1 K53E (UniProt P24785)", "assay": "filter binding", "conditions": "5 mM Mg2+; Filter binding: 20 mM HEPES/NaOH pH 8.0, 150 mM NaCl, 5 mM MgCl2, on ice; recombinant protein; residues 1-84; protein details: N-terminal His6 removed by TEV; label: 5' label"}, "MLE dsRBD1 K54E": {"target": "MLE dsRBD1 K54E (UniProt P24785)", "assay": "filter binding", "conditions": "5 mM Mg2+; Filter binding: 20 mM HEPES/NaOH pH 8.0, 150 mM NaCl, 5 mM MgCl2, on ice; recombinant protein; residues 1-84; protein details: N-terminal His6 removed by TEV; label: 5' label"}, "[6]": {"target": "MLE full-length K53+54E K53E,K54E (UniProt P24785)", "assay": "filter binding", "conditions": "5 mM Mg2+; Filter binding: 20 mM HEPES/NaOH pH 8.0, 150 mM NaCl, 5 mM MgCl2, on ice; recombinant protein; residues 1-1293; protein details: FLAG; label: 5' label"}, "MLE dsRBD1,2 K4E": {"target": "MLE dsRBD1,2 K4E (UniProt P24785)", "assay": "filter binding", "conditions": "5 mM Mg2+; Filter binding: 20 mM HEPES/NaOH pH 8.0, 150 mM NaCl, 5 mM MgCl2, on ice; recombinant protein; residues 1-257; protein details: N-terminal His6 removed by TEV; label: 5' label"}, "MLE full-length K54E": {"target": "MLE full-length K54E (UniProt P24785)", "assay": "filter binding", "conditions": "5 mM Mg2+; Filter binding: 20 mM HEPES/NaOH pH 8.0, 150 mM NaCl, 5 mM MgCl2, on ice; recombinant protein; residues 1-1293; protein details: FLAG; label: 5' label"}, "[7]": {"target": "MLE dsRBD1,2 K54+225E K54E,K225E (UniProt P24785)", "assay": "filter binding", "conditions": "5 mM Mg2+; Filter binding: 20 mM HEPES/NaOH pH 8.0, 150 mM NaCl, 5 mM MgCl2, on ice; recombinant protein; residues 1-257; protein details: N-terminal His6 removed by TEV; label: 5' label"}, "MLE dsRBD1,2 [8]": {"target": "MLE dsRBD1,2 (UniProt P24785)", "assay": "filter binding", "conditions": "5 mM Mg2+; Filter binding: 20 mM HEPES/NaOH pH 8.0, 150 mM NaCl, 5 mM MgCl2, on ice; recombinant protein; residues 1-257; protein details: N-terminal His6 removed by TEV; label: 5' label"}, "[9]": {"target": "MLE dsRBD1 K53+54E K53E,K54E (UniProt P24785)", "assay": "filter binding", "conditions": "5 mM Mg2+; Filter binding: 20 mM HEPES/NaOH pH 8.0, 150 mM NaCl, 5 mM MgCl2, on ice; recombinant protein; residues 1-84; protein details: N-terminal His6 removed by TEV; label: 5' label"}, "MLE dsRBD1 [10]": {"target": "MLE dsRBD1 (UniProt P24785)", "assay": "ITC", "conditions": "very small heat change; ITC: 10 mM HEPES pH 8.0, 75 mM NaCl, 2.5 mM MgCl2, 1 mM b-mercaptoethanol, 20 C; recombinant protein; residues 1-84; protein details: N-terminal His6 removed by TEV"}, "MLE dsRBD1,2 [11]": {"target": "MLE dsRBD1,2 (UniProt P24785)", "assay": "SAXS", "conditions": "1:1 complex, SASDF62; recombinant protein; residues 1-257; protein details: N-terminal His6 removed by TEV"}, "MLE dsRBD1 K4E [12]": {"target": "MLE dsRBD1 K4E (UniProt P24785)", "assay": "NMR titration", "conditions": "1.3x RNA; NMR: protein in 20 mM NaPi pH 6.5, 200 mM NaCl, 1 mM DTT; recombinant protein; residues 1-84; protein details: N-terminal His6 removed by TEV"}},
  "note": "For some assays here: The comparison behind a weaker result is the experiment's own reference, which may not be listed here. For some assays here: Construct, isoform or probe ends are uncertain for at least one entry. For some assays here: No signal at the amounts used counts as a negative. For some assays here: At least one verdict was read from the data and is not stated in words by the source. For some assays here: The direction of at least one scale is not stated here.",
  "data": [
    {"sequence": "ACUGAAGUCUUAAAAGACGUGUAAAAUGUUGCAAAUUAAGCAAAUAUAUAUGCAUAUAUGGGUAACGUUUUACGCGCCUUAACCAGU [SL7 (SL7long) RNA]", "values": [
      {"measurement": "Kd", "setting": "MLE dsRBD1 [1]; label: 5' label", "value": 11.5, "unit": "µM"},
      {"measurement": "binding result", "setting": "MLE dsRBD1,2 K54E", "value": "binds more weakly"},
      {"measurement": "binding result", "setting": "MLE dsRBD1 K4E [2]", "value": "no binding"},
      {"measurement": "binding result", "setting": "MLE dsRBD1,2 K53E", "value": "binds more weakly"},
      {"measurement": "binding result", "setting": "MLE full-length K225E", "value": "binds more weakly"},
      {"measurement": "binding result", "setting": "MLE full-length", "value": "binds"},
      {"measurement": "binding result", "setting": "[3]", "value": "no binding"},
      {"measurement": "binding signal (fold affinity vs dsRBD1,2)", "setting": "MLE dsRBD2", "value": 0.5},
      {"measurement": "binding result", "setting": "[4]", "value": "binds more weakly"},
      {"measurement": "binding result", "setting": "[5]", "value": "binds"},
      {"measurement": "binding result", "setting": "MLE dsRBD1,2 K225E", "value": "binds more weakly"},
      {"measurement": "binding result", "setting": "MLE dsRBD1 K53E", "value": "no binding"},
      {"measurement": "binding result", "setting": "MLE dsRBD1 K54E", "value": "no binding"},
      {"measurement": "binding result", "setting": "[6]", "value": "binds more weakly"},
      {"measurement": "binding result", "setting": "MLE dsRBD1,2 K4E", "value": "binds more weakly"},
      {"measurement": "binding result", "setting": "MLE full-length K54E", "value": "binds more weakly"},
      {"measurement": "binding result", "setting": "[7]", "value": "no binding"},
      {"measurement": "binding signal (fold higher affinity than dsRBD2)", "setting": "MLE dsRBD1,2 [8]", "value": 2},
      {"measurement": "binding result", "setting": "[9]", "value": "no binding"}
    ]},
    {"sequence": "AGACGUGUAAAAUGUUGC / GUAACGUUUUACGCGCCU [SL7 18mer duplex]", "values": [
      {"measurement": "binding result", "setting": "MLE dsRBD1 [10]", "value": "binds more weakly"},
      {"measurement": "binding result", "setting": "MLE dsRBD1,2 [11]", "value": "binds"},
      {"measurement": "binding result", "setting": "MLE dsRBD1 K4E [12]", "value": "binds more weakly"}
    ]},
    {"sequence": "GUGUAAAAUGUUGCAAUAUAUAGUAACGUUUUACGC [SL7 14merLoop]", "values": [
      {"measurement": "binding result", "setting": "MLE dsRBD1 [1]; label: 5' label in filter binding", "value": "binds more weakly"}
    ]}
  ]
}
